Test results: patent US20150259688
Construct, isoform or probe ends are uncertain for at least one entry. Tags and fusion partners may be left off the protein sequences shown.

Target: T1, LL37 (cathelicidin peptide) (Homo sapiens) (UniProt P49913)
T1 sequence (looked up): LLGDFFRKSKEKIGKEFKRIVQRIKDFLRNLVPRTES
Test: activity in cells
Settings: 5 uM aptamer with 10 uM LL37 + human gDNA in pDC culture; IFN-alpha production greatly decreased (ELISA); purified recombinant protein; single-stranded DNA

Sequence: ACTGGGTCTCACCATCGAAAATCGAAATGACTAAAAGGCC [SEQ7 (Apta#222)]
- functional effect of the aptamer: active
